{"source": "PubChem BioAssay AID652259 – Drosophila RNAi Screening Center, 2013", "assay": "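Knock-downs that push a Wingless-driven reporter up or down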 (primary screen)", "cell system": "Drosophila clone 8 imaginal disc epithelial cells", "knock-down reagent": "long dsRNA against Drosophila genes", "conditions": "pathway stimulated by co-transfected Wingless expression plasmid", "read-out": "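Dual luciferase reads per well after Wingless plasmid stimulation: reporter firefly light and Renilla control light; activity is firefly divided by Renilla, a ratio not deposited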", "direction": "firefly reporter light: higher = more Wg reporter light, before normalisation; Renilla control light: higher = more transfected or surviving cells", "hit rule": "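a knock-down is a candidate when at least two out of four statistical tests show it departing from its plate mean; one test alone signals a weak candidate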", "calls": "active = candidate regulator (raises or lowers reporter); inactive = not a candidate", "note": "The screen tested about 22,000 reagents; shown is an unselected part of those that have a named target and a result. Over the whole deposit, 233 (1.1%) were called active. 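Light values are raw, unnormalised plate reads; the ratio scores behind the reporter calls were not deposited.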 A number with no mark means an inactive call. The record does not give: the amount of reagent, the time to read-out, the dose of the treatment."}
{"gene":"Acp26Aa","DRSC id":"DRSC01855","firefly reporter light, replicate 1":2320,"firefly reporter light, replicate 2":5840,"Renilla control light, replicate 1":784,"Renilla control light, replicate 2":1753}
{"gene":"Or67d","DRSC id":"DRSC10158","firefly reporter light, replicate 1":5884,"Renilla control light, replicate 1":2736}
{"gene":"S-Lap2","DRSC id":"DRSC10628","firefly reporter light, replicate 1":1737,"firefly reporter light, replicate 2":8603,"Renilla control light, replicate 1":1211,"Renilla control light, replicate 2":3766}
{"gene":"Nulp1","DRSC id":"DRSC09677","firefly reporter light, replicate 1":4040,"Renilla control light, replicate 1":1367}
{"gene":"Cadps","DRSC id":"DRSC21057","firefly reporter light, replicate 1":18336,"Renilla control light, replicate 1":10173}
{"gene":"Cadps","DRSC id":"DRSC22200","firefly reporter light, replicate 1":4.30e5,"firefly reporter light, replicate 2":5.31e5,"Renilla control light, replicate 1":1.91e5,"Renilla control light, replicate 2":2.27e5}
{"gene":"Cyp4g1","DRSC id":"DRSC18459","firefly reporter light, replicate 1":1963,"firefly reporter light, replicate 2":6227,"Renilla control light, replicate 1":900,"Renilla control light, replicate 2":1477}
{"gene":"Mccc2","DRSC id":"DRSC04987","firefly reporter light, replicate 1":3061,"firefly reporter light, replicate 2":6456,"Renilla control light, replicate 1":536,"Renilla control light, replicate 2":2074}
{"gene":"CG31524","DRSC id":"DRSC22014","firefly reporter light, replicate 1":1.04e6,"firefly reporter light, replicate 2":1.08e6,"Renilla control light, replicate 1":4.93e5,"Renilla control light, replicate 2":4.96e5}
{"gene":"CG42710","DRSC id":"DRSC01034","firefly reporter light, replicate 1":16041,"Renilla control light, replicate 1":8083}
{"gene":"mey","DRSC id":"DRSC14468","firefly reporter light, replicate 1":1776,"firefly reporter light, replicate 2":5531,"Renilla control light, replicate 1":939,"Renilla control light, replicate 2":2336}
{"gene":"Ltn1","DRSC id":"DRSC11056","firefly reporter light, replicate 1":2741,"Renilla control light, replicate 1":1386}
{"gene":"Ltn1","DRSC id":"DRSC11058","firefly reporter light, replicate 1":15955,"Renilla control light, replicate 1":6032}

As entered above:
For “Renilla control light, replicate 1”, S-Lap2 [DRSC10628] is entered as 1211
mey [DRSC14468], firefly reporter light, replicate 1 = 1776
